The text below walks through data of paper doi:10.64898/2025.12.07.692853.

The chains behind the UniProt entries cited, without tags or fusion partners. Where a name states a change or a piece, a line headed by the entry shows the natural chain unless it says otherwise. Residues count along the entry.
UniProt P08670: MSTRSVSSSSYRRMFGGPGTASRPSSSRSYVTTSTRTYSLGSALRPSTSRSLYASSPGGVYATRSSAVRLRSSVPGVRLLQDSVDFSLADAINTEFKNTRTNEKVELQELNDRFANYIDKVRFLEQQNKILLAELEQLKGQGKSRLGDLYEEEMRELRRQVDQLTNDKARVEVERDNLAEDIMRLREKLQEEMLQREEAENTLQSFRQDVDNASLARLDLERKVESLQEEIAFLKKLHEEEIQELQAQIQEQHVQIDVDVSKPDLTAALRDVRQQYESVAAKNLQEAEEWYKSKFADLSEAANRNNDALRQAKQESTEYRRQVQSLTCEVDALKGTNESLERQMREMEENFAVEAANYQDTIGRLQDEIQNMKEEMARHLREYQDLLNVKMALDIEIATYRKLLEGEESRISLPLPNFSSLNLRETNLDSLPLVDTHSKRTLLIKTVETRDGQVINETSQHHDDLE
UniProt P14625, residues 22-803: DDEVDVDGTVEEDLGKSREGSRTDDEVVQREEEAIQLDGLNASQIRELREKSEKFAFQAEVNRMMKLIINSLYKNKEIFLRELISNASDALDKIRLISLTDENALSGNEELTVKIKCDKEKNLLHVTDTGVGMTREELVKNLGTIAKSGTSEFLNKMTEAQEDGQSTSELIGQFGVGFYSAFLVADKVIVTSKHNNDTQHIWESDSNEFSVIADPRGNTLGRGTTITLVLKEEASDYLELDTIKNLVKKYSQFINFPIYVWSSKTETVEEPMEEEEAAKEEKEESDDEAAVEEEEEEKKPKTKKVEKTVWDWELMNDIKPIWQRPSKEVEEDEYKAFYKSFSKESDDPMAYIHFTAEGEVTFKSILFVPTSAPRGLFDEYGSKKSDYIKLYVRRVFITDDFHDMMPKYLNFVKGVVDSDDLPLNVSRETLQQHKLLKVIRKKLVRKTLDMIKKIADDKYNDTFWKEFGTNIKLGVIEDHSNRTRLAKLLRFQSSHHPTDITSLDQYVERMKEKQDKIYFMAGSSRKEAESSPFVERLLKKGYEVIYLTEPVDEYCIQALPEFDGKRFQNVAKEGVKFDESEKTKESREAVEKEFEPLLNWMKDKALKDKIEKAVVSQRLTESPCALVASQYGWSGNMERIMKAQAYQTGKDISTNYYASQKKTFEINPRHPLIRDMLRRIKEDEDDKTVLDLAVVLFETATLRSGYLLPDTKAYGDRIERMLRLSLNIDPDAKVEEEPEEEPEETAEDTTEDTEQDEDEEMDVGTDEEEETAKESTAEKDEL
UniProt P11021, residues 19-654: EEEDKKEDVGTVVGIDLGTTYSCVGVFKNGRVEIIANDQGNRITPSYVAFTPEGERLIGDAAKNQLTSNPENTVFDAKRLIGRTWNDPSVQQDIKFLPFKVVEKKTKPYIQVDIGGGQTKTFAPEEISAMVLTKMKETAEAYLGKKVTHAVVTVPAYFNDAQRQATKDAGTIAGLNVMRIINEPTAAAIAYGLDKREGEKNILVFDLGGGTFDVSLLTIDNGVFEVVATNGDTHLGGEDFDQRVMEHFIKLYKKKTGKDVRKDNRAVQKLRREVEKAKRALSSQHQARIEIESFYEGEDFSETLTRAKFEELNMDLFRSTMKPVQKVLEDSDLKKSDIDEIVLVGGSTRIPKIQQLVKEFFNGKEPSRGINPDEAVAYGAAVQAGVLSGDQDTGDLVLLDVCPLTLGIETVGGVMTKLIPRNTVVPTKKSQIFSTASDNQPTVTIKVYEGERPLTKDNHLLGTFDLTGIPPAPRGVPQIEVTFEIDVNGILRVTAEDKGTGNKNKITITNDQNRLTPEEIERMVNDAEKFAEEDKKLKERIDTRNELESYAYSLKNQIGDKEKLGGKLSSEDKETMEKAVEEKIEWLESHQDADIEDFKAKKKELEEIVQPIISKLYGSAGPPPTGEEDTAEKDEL

The target of assay [1] is vimentin L387P (human) (human) (UniProt P08670). Put plainly: co-IP.
In assay [2] the target is vimentin wild-type (human) (human) (UniProt P08670). Description: co-IP.

No constants are given. Whether binding was seen depends on the method and setting. Binding seen in cells or lysates may run through a third protein. Some entries that bind do so weakly or less than the wild type.

For GRP94 (from UniProt P14625 22-803), the binding result in assay [1] and in assay [2] was “binds” each time.
Turning to GRP78 (from UniProt P11021 19-654), the binding result in assay [1] and in assay [2] was “binds” each time.
